Measurements: the supplement of paper PMC8256030
Values joined by “and” are separate entries in the source; they are usually repeats but may differ in a detail not shown here. Equal values may be shown once. ± gives the standard deviation of the averaged measurements. This is one part of the list. This data set is noisy: repeats of one test often differ as much as different tests do.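 HEK293T cells were given each compound shortly before transfection with a reporter in which red mCherry is followed by the SARS-CoV-2 frameshift element and then GFP in the −1 frame, so GFP appears only after frameshifting.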

System: HEK293T
Experiment: percent viability (nuclei count) relative to control; higher = more viable cells
Conditions: 10 µM; 24 h

Q: With `COc1ccc2cccc(CCNC(C)=O)c2c1` [agomelatine] as the compound, how does the percent viability read?
A: 322%

Q: How did the percent viability turn out when `OCc1ccccc1` [benzyl alcohol] was run?
A: 288%

Q: `C#C[C@]1(O)CC[C@H]2[C@@H]3CCC4=CC(=O)CC[C@@H]4[C@H]3CC[C@@]21CC` [levonorgestrel] was tested. Which percent viability did it give?
A: 260% and 144%

Q: Which percent viability does the source give for `O=c1oc2ccccc2c(O)c1Cc1c(O)c2ccccc2oc1=O` here?
A: 169%

Q: How did the percent viability turn out when `Cc1ccc2c(Cl)cc(Cl)c(O)c2n1` [chlorquinaldol] was run?
A: 335%

Q: How did the percent viability turn out when `N#Cc1c[nH]c2c(C(=O)N3CCN(CCc4ccc(F)cc4)CC3)cccc12` [pruvanserin] was run?
A: 122%

Q: How did the percent viability turn out when `NC(=O)NNc1ccccc1` [phenicarbazide] was run?
A: 97.8%

Q: `O=C(O)CCNC(=O)c1ccc(/N=N/c2ccc(O)c(C(=O)O)c2)cc1` was tested. Which percent viability did it give?
A: 310%

Q: `COc1cc(N)c(Cl)cc1C(=O)NC1CCN(CCCOc2ccc(F)cc2)CC1OC` (stereo not drawn) [cisapride] was tested. Which percent viability did it give?
A: 218%

Q: Which percent viability does the source give for `N[C@@H](Cc1cc(I)c(Oc2ccc(O)c(I)c2)c(I)c1)C(=O)O` here?
A: 329%

Q: How did the percent viability turn out when `CC(C)(C)C1CCC(CC2=C(O)c3ccccc3C(=O)C2=O)CC1` (stereo not drawn) [buparvaquone] was run?
A: 126%

Q: For `COc1cc([C@@H]2[C@H]3CO[C@@]4(O)C(=O)[C@@H]2C=C([C@H]2Oc5cc(O)cc(O)c5C(=O)[C@@H]2O)[C@@H]34)ccc1O` [Silydianin], which percent viability is on record?
A: 134%

Q: For `CCOC(=O)C1=C[C@]2(CC)CCCN3CCc4c(n1c1ccccc41)[C@@H]32`, which percent viability is on record?
A: 114%

Q: With `C=C1CC[C@H](O)C/C1=C/C=C1\CCC[C@]2(C)[C@@H]([C@H](C)CCCC(C)(C)O)CC[C@@H]12` [calcifediol] as the compound, how does the percent viability read?
A: 227% and 379%

Q: Which percent viability does the source give for `CC(C(=O)O)c1ccc2c(c1)[nH]c1ccc(Cl)cc12` (stereo not drawn) [carprofen] here?
A: 290%

Q: For `NCCNC(=O)c1ccc(Cl)cn1` [lazabemide], which percent viability is on record?
A: 263%

Q: For `CC(Oc1ccccc1)C(=O)N[C@@H]1C(=O)N2[C@@H]1SC(C)(C)[C@@H]2C(=O)O` (stereo partly drawn) [pheneticillin], which percent viability is on record?
A: 288%

Q: How did the percent viability turn out when `CC(C)[C@@H](C)/C=C/[C@@H](C)[C@H]1CC[C@H]2/C(=C/C=C3\C[C@@H](O)CC[C@@H]3C)CCC[C@]12C` [Antitanil] was run?
A: 208%

Q: With `CN(C)CCOC(c1ccccc1)c1ccccc1` [diphenhydramine] as the compound, how does the percent viability read?
A: 275% and 144%

Q: How did the percent viability turn out when `CN(C/C=C/C#CC(C)(C)C)Cc1cccc2ccccc12` [terbinafine] was run?
A: 239% and 181% and 173%

Q: For `CC[C@@]12C=C(C(=O)OC)n3c4c(c5ccccc53)CCN(CCC1)[C@H]42` [apovincamine], which percent viability is on record?
A: 133 ± 26%

Q: How did the percent viability turn out when `O=C(O)CN(CCN(CC(=O)O)CC(=O)O)CCN(CC(=O)O)CC(=O)O` [pentetic acid] was run?
A: 122%

Q: Which percent viability does the source give for `COc1cc(NC(C)CCCN)c2ncccc2c1` (stereo not drawn) [primaquine] here?
A: 250% and 200%
